From the supplement of paper PMC6411743
± gives the standard deviation of the averaged measurements. Some of the results follow.

Chains of the proteins cited; added tags and fusions are not shown. Lines headed by an entry give the natural chain unless they say otherwise; changes in a name come on top.
UniProt Q01196, whole entry: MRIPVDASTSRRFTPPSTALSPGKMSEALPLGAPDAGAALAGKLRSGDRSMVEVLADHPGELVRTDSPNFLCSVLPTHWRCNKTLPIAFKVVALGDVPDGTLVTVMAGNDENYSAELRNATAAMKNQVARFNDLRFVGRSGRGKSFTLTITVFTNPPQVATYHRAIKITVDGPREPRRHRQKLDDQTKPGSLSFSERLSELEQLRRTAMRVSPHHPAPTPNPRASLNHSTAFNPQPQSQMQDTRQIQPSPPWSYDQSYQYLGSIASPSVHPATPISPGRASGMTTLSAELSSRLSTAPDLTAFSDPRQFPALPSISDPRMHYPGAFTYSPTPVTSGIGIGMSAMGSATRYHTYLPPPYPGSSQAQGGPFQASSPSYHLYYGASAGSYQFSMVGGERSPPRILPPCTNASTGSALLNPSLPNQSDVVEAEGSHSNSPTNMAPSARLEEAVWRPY
UniProt Q00688: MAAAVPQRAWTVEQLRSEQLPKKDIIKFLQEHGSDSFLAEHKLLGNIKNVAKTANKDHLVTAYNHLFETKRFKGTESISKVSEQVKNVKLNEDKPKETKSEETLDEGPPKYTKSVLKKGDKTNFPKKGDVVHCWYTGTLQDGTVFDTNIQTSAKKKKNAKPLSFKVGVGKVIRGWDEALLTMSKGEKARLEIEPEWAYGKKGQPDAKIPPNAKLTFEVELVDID
UniProt Q14061: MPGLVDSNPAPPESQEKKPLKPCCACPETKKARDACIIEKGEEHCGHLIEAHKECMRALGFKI
UniProt Q13325: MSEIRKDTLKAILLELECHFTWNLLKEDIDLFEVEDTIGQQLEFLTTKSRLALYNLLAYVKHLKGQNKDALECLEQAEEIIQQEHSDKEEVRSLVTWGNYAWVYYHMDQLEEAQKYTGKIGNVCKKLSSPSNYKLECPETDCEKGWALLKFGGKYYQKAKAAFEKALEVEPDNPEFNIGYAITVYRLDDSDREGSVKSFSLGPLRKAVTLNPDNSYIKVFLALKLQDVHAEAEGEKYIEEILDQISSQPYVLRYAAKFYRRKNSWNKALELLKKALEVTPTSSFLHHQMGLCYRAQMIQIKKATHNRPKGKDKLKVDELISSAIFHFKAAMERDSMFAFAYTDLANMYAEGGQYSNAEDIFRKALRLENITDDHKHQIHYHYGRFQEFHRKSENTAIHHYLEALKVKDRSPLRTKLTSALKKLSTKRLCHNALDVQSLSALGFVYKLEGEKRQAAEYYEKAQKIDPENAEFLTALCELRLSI
UniProt Q04759: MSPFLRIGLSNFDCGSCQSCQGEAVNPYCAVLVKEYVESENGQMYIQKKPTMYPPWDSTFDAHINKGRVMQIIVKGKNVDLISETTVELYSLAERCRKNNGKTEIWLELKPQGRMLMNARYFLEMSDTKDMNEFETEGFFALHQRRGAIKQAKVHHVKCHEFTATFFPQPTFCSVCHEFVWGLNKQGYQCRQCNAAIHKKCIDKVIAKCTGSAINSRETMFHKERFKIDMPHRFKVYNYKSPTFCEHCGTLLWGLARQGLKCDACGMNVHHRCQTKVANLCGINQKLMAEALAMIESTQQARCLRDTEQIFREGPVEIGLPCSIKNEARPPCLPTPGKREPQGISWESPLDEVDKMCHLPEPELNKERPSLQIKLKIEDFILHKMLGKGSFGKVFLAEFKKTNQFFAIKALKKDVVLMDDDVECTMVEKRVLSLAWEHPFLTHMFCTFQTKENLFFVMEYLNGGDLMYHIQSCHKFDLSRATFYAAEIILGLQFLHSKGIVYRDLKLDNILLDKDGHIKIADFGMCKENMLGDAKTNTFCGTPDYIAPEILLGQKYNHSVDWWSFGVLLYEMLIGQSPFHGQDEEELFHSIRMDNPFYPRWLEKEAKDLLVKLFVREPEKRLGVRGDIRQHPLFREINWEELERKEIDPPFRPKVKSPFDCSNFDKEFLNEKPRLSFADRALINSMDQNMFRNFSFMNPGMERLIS
UniProt Q04656: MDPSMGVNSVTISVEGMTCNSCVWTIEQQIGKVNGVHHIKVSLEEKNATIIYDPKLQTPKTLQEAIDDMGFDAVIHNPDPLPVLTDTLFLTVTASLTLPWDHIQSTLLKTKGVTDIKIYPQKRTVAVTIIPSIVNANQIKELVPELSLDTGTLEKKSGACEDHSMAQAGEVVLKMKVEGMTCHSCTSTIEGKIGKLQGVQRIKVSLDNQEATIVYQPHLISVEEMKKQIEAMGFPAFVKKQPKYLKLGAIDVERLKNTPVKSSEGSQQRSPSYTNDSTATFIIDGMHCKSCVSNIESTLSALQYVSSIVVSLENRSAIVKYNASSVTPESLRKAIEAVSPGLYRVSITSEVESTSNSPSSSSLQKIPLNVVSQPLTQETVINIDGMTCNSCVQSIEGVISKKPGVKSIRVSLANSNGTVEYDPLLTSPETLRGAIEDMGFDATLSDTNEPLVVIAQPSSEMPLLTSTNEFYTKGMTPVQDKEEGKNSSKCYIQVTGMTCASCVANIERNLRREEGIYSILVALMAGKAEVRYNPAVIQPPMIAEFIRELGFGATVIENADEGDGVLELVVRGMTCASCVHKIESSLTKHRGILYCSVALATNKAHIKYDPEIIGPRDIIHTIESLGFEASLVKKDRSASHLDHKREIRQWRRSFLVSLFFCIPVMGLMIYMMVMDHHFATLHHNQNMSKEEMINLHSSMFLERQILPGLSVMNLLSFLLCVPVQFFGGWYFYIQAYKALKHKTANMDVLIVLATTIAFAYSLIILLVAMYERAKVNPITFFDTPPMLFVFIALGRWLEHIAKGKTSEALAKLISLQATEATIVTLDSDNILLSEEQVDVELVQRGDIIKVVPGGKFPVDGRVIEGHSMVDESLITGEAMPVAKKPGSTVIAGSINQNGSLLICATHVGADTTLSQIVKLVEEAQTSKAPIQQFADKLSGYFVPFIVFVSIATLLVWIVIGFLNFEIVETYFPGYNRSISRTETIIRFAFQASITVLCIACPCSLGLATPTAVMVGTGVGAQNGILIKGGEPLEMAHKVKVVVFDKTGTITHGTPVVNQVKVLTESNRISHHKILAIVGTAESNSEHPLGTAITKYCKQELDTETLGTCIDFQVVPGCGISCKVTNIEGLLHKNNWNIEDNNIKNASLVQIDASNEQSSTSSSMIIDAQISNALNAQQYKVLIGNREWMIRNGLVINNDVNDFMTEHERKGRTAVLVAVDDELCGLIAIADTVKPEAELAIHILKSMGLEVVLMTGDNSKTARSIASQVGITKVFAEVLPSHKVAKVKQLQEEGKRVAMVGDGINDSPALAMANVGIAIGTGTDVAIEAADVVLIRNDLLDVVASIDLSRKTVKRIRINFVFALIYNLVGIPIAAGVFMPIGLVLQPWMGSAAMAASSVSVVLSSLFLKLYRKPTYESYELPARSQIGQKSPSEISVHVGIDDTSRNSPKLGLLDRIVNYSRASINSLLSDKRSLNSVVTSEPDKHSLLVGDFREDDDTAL
UniProt Q12906, whole entry: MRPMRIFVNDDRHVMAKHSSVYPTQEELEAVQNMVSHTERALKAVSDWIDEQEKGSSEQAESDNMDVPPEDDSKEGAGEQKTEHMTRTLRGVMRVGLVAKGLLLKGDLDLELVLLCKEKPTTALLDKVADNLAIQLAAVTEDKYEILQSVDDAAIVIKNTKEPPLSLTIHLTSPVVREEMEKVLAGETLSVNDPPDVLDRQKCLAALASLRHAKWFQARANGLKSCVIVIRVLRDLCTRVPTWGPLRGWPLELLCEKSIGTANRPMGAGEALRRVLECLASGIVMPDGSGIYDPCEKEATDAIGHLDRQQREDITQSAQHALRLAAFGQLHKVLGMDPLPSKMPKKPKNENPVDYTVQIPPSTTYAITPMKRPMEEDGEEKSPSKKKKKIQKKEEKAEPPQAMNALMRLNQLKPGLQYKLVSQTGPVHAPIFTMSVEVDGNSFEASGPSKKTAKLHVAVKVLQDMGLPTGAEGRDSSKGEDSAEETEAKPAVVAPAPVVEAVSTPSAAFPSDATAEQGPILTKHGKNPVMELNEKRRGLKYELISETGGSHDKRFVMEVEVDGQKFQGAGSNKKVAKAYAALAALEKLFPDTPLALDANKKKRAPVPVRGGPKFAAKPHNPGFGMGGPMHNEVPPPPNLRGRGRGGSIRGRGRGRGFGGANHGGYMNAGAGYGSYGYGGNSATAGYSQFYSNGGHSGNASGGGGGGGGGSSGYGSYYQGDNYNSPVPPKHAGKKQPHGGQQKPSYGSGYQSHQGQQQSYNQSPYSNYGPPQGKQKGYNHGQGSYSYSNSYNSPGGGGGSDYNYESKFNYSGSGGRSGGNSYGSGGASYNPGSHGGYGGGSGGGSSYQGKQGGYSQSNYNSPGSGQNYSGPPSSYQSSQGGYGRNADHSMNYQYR
UniProt Q13416: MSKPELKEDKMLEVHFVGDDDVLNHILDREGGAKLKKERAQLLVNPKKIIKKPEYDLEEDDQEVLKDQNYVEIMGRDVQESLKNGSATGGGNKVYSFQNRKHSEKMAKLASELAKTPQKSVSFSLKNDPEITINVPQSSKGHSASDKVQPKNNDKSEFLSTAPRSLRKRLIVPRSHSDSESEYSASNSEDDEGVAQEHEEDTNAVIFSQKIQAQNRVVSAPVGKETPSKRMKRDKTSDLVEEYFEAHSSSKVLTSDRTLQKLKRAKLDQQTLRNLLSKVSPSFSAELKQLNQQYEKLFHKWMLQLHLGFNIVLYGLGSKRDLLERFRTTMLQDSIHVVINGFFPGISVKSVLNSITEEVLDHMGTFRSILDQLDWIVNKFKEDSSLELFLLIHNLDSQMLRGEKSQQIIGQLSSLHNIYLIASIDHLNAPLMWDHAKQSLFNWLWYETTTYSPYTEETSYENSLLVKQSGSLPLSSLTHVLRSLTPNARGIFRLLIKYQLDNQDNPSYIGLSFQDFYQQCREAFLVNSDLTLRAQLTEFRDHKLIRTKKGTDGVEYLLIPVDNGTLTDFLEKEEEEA
UniProt Q02127: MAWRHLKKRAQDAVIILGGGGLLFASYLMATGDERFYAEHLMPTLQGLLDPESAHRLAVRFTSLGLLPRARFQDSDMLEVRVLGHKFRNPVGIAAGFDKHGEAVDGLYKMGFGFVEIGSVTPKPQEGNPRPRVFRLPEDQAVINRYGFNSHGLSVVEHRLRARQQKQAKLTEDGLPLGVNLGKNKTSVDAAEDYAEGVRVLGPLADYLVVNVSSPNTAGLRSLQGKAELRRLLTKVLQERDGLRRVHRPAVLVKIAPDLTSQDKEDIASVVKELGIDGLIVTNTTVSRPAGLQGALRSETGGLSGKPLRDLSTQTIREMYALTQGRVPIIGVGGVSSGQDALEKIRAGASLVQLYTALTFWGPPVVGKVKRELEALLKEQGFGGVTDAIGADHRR
UniProt Q14444, whole entry: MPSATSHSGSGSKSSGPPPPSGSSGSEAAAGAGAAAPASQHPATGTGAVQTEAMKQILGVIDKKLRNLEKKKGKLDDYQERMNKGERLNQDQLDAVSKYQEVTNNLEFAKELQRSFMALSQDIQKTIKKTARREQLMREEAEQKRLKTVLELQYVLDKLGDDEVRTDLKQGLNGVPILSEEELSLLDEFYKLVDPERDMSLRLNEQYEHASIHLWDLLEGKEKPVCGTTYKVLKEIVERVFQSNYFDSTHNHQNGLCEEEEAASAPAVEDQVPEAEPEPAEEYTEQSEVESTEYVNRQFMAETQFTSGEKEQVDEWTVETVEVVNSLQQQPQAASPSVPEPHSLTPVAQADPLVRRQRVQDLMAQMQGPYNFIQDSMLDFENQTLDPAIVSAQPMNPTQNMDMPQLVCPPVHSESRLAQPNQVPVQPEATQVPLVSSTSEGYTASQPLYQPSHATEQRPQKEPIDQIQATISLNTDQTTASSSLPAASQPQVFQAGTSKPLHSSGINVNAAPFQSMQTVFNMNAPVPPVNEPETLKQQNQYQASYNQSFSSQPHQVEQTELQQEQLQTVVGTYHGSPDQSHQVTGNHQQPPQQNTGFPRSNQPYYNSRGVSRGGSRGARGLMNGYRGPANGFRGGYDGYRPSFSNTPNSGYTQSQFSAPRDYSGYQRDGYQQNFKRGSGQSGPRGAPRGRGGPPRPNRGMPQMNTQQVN
UniProt Q03111: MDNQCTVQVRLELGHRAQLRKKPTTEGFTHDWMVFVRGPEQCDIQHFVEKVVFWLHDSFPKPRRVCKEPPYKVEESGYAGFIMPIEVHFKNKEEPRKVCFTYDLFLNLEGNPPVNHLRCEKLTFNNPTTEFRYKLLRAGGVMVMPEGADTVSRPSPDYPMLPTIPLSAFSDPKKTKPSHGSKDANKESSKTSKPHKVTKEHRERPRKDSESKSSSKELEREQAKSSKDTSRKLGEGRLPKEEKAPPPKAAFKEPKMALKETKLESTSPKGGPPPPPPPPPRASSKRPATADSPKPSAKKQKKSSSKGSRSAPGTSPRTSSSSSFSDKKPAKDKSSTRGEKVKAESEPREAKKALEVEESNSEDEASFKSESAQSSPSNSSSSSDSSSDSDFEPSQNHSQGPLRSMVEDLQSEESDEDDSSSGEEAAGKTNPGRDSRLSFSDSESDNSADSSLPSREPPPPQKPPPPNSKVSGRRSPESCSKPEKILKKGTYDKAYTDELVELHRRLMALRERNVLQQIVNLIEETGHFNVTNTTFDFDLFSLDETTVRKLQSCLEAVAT

Compound: Nc1nc2c(ncn2[C@@H]2O[C@H](COP(=O)(O)OP(=O)(O)OP(=O)(O)O)[C@@H](O)[C@H]2O)c(=O)[nH]1 [guanosine triphosphate]
Test: NP40-soluble protein abundance relative to vehicle (solubility fold change) (ratio); higher = more soluble protein in presence of GTP
Outline: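 In three independent experiments, Jurkat crude lysate made by Dounce homogenisation was treated for 10 min at room temperature and then 3 min at 37 °C with eight concentrations ranging from 0.1 to 10 mM. It was then solubilised with 0.8% NP40 plus benzonase for 60 min at 4 °C and ultracentrifuged. The supernatant was TMT-labelled for LC-MS/MS, and each value is the fold change against the detergent-processed vehicle for the same replicate, using vsn-normalised intensities.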

Target	NP40-soluble protein abundance (concentration: 0.1mM)	NP40-soluble protein abundance (concentration: 0.5mM)	NP40-soluble protein abundance (concentration: 1mM)	NP40-soluble protein abundance (concentration: 2mM)	NP40-soluble protein abundance (concentration: 4mM)	NP40-soluble protein abundance (concentration: 6mM)	NP40-soluble protein abundance (concentration: 8mM)	NP40-soluble protein abundance (concentration: 10mM)
MGAT5 (UniProt Q09328)	0.998 ± 0.027	0.97 ± 0.1	1 ± 0.073	0.981 ± 0.098	0.873 ± 0.054	0.928 ± 0.081	0.963 ± 0.042	0.95 ± 0.047
BLMH (UniProt Q13867)	1.1 ± 0.061	1.05 ± 0.077	0.966 ± 0.051	1.03 ± 0.11	0.979 ± 0.089	0.971 ± 0.087	0.902 ± 0.022	0.921 ± 0.05
UniProt Q01196-11|Q01196-8|Q01196	0.994 ± 0.058	1.03 ± 0.013	1.051 ± 0.0075	1.07 ± 0.054	1.13 ± 0.07	1.15 ± 0.08	1.19 ± 0.092	1.19 ± 0.12
FKBP3 (UniProt Q00688)	0.911 ± 0.048	0.906 ± 0.066	0.943 ± 0.073	0.906 ± 0.081	0.902 ± 0.081	0.905 ± 0.082	0.925 ± 0.077	0.943 ± 0.09
UniProt Q03933-2	1.08 ± 0.03	1.07 ± 0.012	1.06 ± 0.029	1 ± 0.047	0.989 ± 0.021	0.961 ± 0.055	1.09 ± 0.031	0.917 ± 0.043
UniProt Q08AE8 and related entries	1.1 ± 0.18	0.994 ± 0.21	0.961 ± 0.11	0.92 ± 0.098	0.902 ± 0.04	0.862 ± 0.018	0.876 ± 0.11	0.816 ± 0.063
GNA13 (UniProt Q14344)	1.02 ± 0.03	1.03 ± 0.072	0.899 ± 0.013	0.912 ± 0.043	0.877 ± 0.04	0.881 ± 0.043	0.853 ± 0.06	0.822 ± 0.072
SNW1 (UniProt Q13573)	0.96 ± 0.049	0.94 ± 0.064	0.97 ± 0.028	0.94 ± 0.071	0.942 ± 0.063	0.959 ± 0.041	1.01 ± 0.046	1.03 ± 0.051
CHAF1A (UniProt Q13111)	0.999 ± 0.071	0.994 ± 0.073	1 ± 0.074	0.974 ± 0.068	1.01 ± 0.075	0.992 ± 0.063	1.07 ± 0.092	1.05 ± 0.086
COX17 (UniProt Q14061)	1.02 ± 0.042	0.9835 ± 0.0056	1.06 ± 0.026	0.996 ± 0.082	0.977 ± 0.023	0.941 ± 0.062	1.08 ± 0.024	1.032 ± 0.0052
ROCK1 (UniProt Q13464)	0.974 ± 0.059	0.995 ± 0.057	0.98 ± 0.064	0.938 ± 0.084	0.934 ± 0.067	0.942 ± 0.058	0.972 ± 0.056	0.941 ± 0.067
UniProt Q13325 and related entries	1.06 ± 0.044	1.05 ± 0.061	0.989 ± 0.057	0.978 ± 0.05	0.952 ± 0.086	0.927 ± 0.049	0.906 ± 0.077	0.888 ± 0.13
PRKCQ (UniProt Q04759)	1.07 ± 0.045	1.05 ± 0.046	0.96 ± 0.028	0.957 ± 0.081	0.9 ± 0.051	0.936 ± 0.075	0.915 ± 0.053	0.856 ± 0.099
UniProt Q13164	1.09 ± 0.083	1.02 ± 0.065	1.05 ± 0.063	1.02 ± 0.13	1.01 ± 0.092	1.04 ± 0.15	1.01 ± 0.067	1 ± 0.077
TFDP1 (UniProt Q14186)	1.01 ± 0.075	1.01 ± 0.063	1.03 ± 0.055	0.9671 ± 0.0086	0.997 ± 0.035	0.96 ± 0.04	0.983 ± 0.021	0.971 ± 0.029
SMC1A (UniProt Q14683)	1 ± 0.041	1.04 ± 0.023	1.02 ± 0.024	1.02 ± 0.038	1.01 ± 0.05	1.03 ± 0.043	1.05 ± 0.065	1 ± 0.049
UniProt Q04656 and related entries	1.01 ± 0.13	1.01 ± 0.059	0.971 ± 0.096	1.01 ± 0.079	0.951 ± 0.052	1.02 ± 0.015	0.972 ± 0.11	0.924 ± 0.087
MCM6 (UniProt Q14566)	1.05 ± 0.1	1.08 ± 0.15	0.982 ± 0.11	1.02 ± 0.17	0.99 ± 0.14	1.01 ± 0.16	0.944 ± 0.081	0.921 ± 0.11
MGAT2 (UniProt Q10469)	1.05 ± 0.063	1.02 ± 0.09	1.02 ± 0.032	1.02 ± 0.019	1.05 ± 0.016	0.987 ± 0.11	1.009 ± 0.01	1.01 ± 0.022
PAK2 (UniProt Q13177)	0.941 ± 0.038	0.964 ± 0.043	0.929 ± 0.055	0.862 ± 0.058	0.852 ± 0.062	0.882 ± 0.066	0.88 ± 0.063	0.848 ± 0.064
UniProt Q13439-5	0.971 ± 0.054	0.96 ± 0.069	0.99 ± 0.072	0.958 ± 0.1	0.954 ± 0.072	0.946 ± 0.074	0.995 ± 0.046	0.975 ± 0.072
UniProt Q12906 and related entries	0.996 ± 0.013	1.04 ± 0.022	1.1 ± 0.047	1.15 ± 0.085	1.21 ± 0.13	1.25 ± 0.12	1.28 ± 0.18	1.26 ± 0.15
UniProt Q13416	0.988 ± 0.035	0.963 ± 0.026	1.03 ± 0.015	0.989 ± 0.033	1.03 ± 0.017	1.02 ± 0.032	1.1 ± 0.026	1.07 ± 0.024
UniProt Q03164 and related entries	1.07 ± 0.051	1.09 ± 0.064	1.13 ± 0.08	1.16 ± 0.045	1.24 ± 0.073	1.29 ± 0.086	1.34 ± 0.12	1.37 ± 0.09
DHODH (UniProt Q02127)	1.07 ± 0.088	1.01 ± 0.098	0.979 ± 0.1	0.984 ± 0.081	0.994 ± 0.14	0.935 ± 0.085	0.926 ± 0.11	0.906 ± 0.12
G3BP1 (UniProt Q13283)	1.01 ± 0.069	1.01 ± 0.071	1.04 ± 0.071	1.06 ± 0.095	1.09 ± 0.075	1.09 ± 0.075	1.14 ± 0.088	1.16 ± 0.11
UniProt Q14444 and related entries	0.95 ± 0.057	0.994 ± 0.098	1.06 ± 0.07	1.01 ± 0.14	1.02 ± 0.088	1.11 ± 0.1	1.16 ± 0.057	1.13 ± 0.11
MLLT1 (UniProt Q03111)	0.99 ± 0.053	0.972 ± 0.071	0.988 ± 0.11	0.954 ± 0.11	0.961 ± 0.091	0.976 ± 0.091	0.994 ± 0.026	1.03 ± 0.091

Complete entries from above. Order of values: NP40-soluble protein abundance (concentration: 0.1mM)	NP40-soluble protein abundance (concentration: 0.5mM)	NP40-soluble protein abundance (concentration: 1mM)	NP40-soluble protein abundance (concentration: 2mM)	NP40-soluble protein abundance (concentration: 4mM)	NP40-soluble protein abundance (concentration: 6mM)	NP40-soluble protein abundance (concentration: 8mM)	NP40-soluble protein abundance (concentration: 10mM)
FKBP3 (UniProt Q00688) is entered as 0.911 ± 0.048	0.906 ± 0.066	0.943 ± 0.073	0.906 ± 0.081	0.902 ± 0.081	0.905 ± 0.082	0.925 ± 0.077	0.943 ± 0.09
UniProt Q08AE8 and related entries is entered as 1.1 ± 0.18	0.994 ± 0.21	0.961 ± 0.11	0.92 ± 0.098	0.902 ± 0.04	0.862 ± 0.018	0.876 ± 0.11	0.816 ± 0.063
